Measurements reported in patent EP2333103A1, “Differential diagnosis and therapy for kinase inhibitors” (Max-Planck-Gesellschaft zur Förderung der Wissenschaften …, priority 2009, dated 2011).
At least one compound was matched to its structure with a doubt left.

Key:
NME4 = molecular target: T1, NME4 (Homo sapiens, UniProt O00746); assay: Affinity chromatography on SU11248 Sepharose matrix with LC/MS identification of bound polypeptides; format: binding; details: whole cell lysate, in vitro association conditions
T1 construct: Whole cell lysate was incubated with the SU11248 Sepharose matrix under in vitro association conditions; endogenous in cells
T1 sequence (O00746 29-187): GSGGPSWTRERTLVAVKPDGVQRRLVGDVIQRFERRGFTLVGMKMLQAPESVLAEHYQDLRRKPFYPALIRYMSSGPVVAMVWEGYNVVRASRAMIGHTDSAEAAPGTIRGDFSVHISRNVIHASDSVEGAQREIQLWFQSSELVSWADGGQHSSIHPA

Cancer cells = assay: MTT assay of SU11248 efficacy after target knock-down by siRNA; format: cell-based; details: 5 µM SU11248, 72h; after depletion of ROS1, BMP2k, NME4 and TBK1 by siRNA; relative to mock-transfected, SU11248 treated cells; Fig. 4

CCN(CC)CCNC(=O)c1c(C)[nH]c(/C=C2\C(=O)Nc3ccc(F)cc32)c1C [SU11248, Sunitinib]
binding partners of SU11248 (NME4): identified as binding partners
SU11248 treatment efficacy (Cancer cells): dramatic decrease
